Experimental data reported in PubChem BioAssay AID1347076 (National Center for Advancing Translational Sciences (NCATS), 2019).
Out of some 400,000 compounds screened, about 13,000 (3.2%) were called active. The inconclusive results got no clear call from the source; some entries with a clear call stand among them for comparison. Calls come from the whole dose curve; as a rule, active = well fitted cell-killing curve with a large enough effect; inconclusive = small, poorly fitted or top-dose-only effect, or effect the other way; inactive = flat fitted curve, though single readings scatter. A potency beside an inconclusive call is a rough fit, not a confirmed value.

Assay: qHTS assay for MDR1-selective chemotherapeutics: Primary screen using the drug-selected MDR subline cells KB-V1; note: nearly all actives have a fitted effect of over 60% in size
Details: KB-V1 MDR cells viability, CellTiter-Glo, 72 h; activity change, negative = cytotoxicity: at 46.1 µM (top of the series)
In short: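 Luminescent ATP read-out (CellTiter-Glo, 10 min) measures survival of drug-selected KB-V1 MDR cells after 72 h, 37 degrees C compound exposure. Medium: phenol-red-free DMEM, 10% FBS. Values from fitted concentration-response curves.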
% is set by controls: 0 for no effect and ±100 for the full control effect; potency is the fitted concentration of half-maximal effect.

Compound	activity change, negative = cytotoxicity	Potency
CC(=O)N1CC2(NC(=O)c3ccccc3N2)c2ccccc21 (stereo not given)	inactive: 7.94%	–
O=C(O)COc1ccccc1/C=N/NC(=O)c1cc2ccccc2cc1O	inactive: 15.5%	–
Cc1ccc(/C=N/NC(=O)CCn2nc(C)cc2C)c(C)c1	–	inconclusive: 14.6 µM [cytotoxic, partial curve]
CC(=O)Nc1cccc(NC(=O)COc2ccccc2C)c1	inconclusive: -3.24%	–
Cc1ccc(OCc2nnc(SCC(=O)c3cccc([N+](=O)[O-])c3)n2C)cc1	inactive: 11.4%	–
COC(=O)c1ccc(NC(=O)CCN2C(=O)CSC2=O)cc1	–	inconclusive: 3.66 µM [rising, full curve]
Cc1nn(CC(=O)NCc2ccco2)c(C)c1[N+](=O)[O-]	–	inconclusive: 6.51 µM [rising, partial curve]
O=C(NC1C2CCCC1CN(C1CC1)C2)c1ccc(Cl)cc1 (stereo not given)	inactive: 6.02%	–
NS(=O)(=O)c1ccc(-c2ccc(C=C3C(=O)c4ccccc4C3=O)o2)cc1	–	inconclusive: 0.92 µM [rising, full curve, poor fit]
O=C(COC(=O)c1c(F)cccc1Cl)NC(=O)Nc1ccc2c(c1)OCCO2	–	inconclusive: 0.731 µM [rising, full curve]
COc1ccc(-n2ccnc2SCC(=O)c2c(N)n(C3CC3)c(=O)[nH]c2=O)cc1	inactive: 18.9%	–
O=C(CNC(=O)c1ccc(S(=O)(=O)N2CCCC2)cc1)N/N=C/c1ccccc1Cl	inactive: -14.9%	–
C=CCOc1ccccc1CN1CCC(Cc2ccccc2)CC1	–	inconclusive: 7.31 µM [cytotoxic, partial curve]
CC(=O)Nc1ccc(NC2=Nc3ccccc3N3C2=Nc2c(c(C)nn2-c2ccccc2)C3c2ccccc2)cc1 (stereo not given)	–	inconclusive: 3.26 µM [cytotoxic, partial curve, poor fit]
CCc1ccc(C(=O)COC(=O)c2cc([N+](=O)[O-])ccc2NCCO)cc1	–	inconclusive: 29.1 µM [cytotoxic, partial curve, poor fit]
C=CCNC(=O)c1ccccc1NC(=O)c1ccc(Cl)c(S(=O)(=O)Nc2cc(C)ccc2C)c1	–	active: 20.6 µM
COc1cc(C(=O)NCCCN2CCCC2=O)ccc1OCc1ccc(Cl)cc1Cl	–	inconclusive: 4.61 µM [cytotoxic, partial curve]
CN1C(=O)c2c(sc3c2CC(C)(C)SC3)N2CCN=C12	–	inconclusive: 23.1 µM [cytotoxic, partial curve]
CC(C)NC(=S)N/N=C1\CCCCC1C1CCCCC1 (stereo not given)	–	inconclusive: 20.6 µM [cytotoxic, single point]
COc1ccc(SCC(O)Cn2c3ccccc3c3ccccc32)c(OC)c1 (stereo not given)	–	inconclusive: 29.1 µM [cytotoxic, single point]

2 of the compounds above, in markdown:

| Compound | activity change, negative = cytotoxicity | Potency |
| --- | --- | --- |
| CC(C)NC(=S)N/N=C1\CCCCC1C1CCCCC1 (stereo not given) | – | inconclusive: 20.6 µM [cytotoxic, single point] |
| COc1ccc(SCC(O)Cn2c3ccccc3c3ccccc32)c(OC)c1 (stereo not given) | – | inconclusive: 29.1 µM [cytotoxic, single point] |
